In this assay the target is T1, GFP-AGO1 (ARGONAUTE1, Arabidopsis thaliana) (Arabidopsis thaliana) (UniProt O04379).
T1 sequence: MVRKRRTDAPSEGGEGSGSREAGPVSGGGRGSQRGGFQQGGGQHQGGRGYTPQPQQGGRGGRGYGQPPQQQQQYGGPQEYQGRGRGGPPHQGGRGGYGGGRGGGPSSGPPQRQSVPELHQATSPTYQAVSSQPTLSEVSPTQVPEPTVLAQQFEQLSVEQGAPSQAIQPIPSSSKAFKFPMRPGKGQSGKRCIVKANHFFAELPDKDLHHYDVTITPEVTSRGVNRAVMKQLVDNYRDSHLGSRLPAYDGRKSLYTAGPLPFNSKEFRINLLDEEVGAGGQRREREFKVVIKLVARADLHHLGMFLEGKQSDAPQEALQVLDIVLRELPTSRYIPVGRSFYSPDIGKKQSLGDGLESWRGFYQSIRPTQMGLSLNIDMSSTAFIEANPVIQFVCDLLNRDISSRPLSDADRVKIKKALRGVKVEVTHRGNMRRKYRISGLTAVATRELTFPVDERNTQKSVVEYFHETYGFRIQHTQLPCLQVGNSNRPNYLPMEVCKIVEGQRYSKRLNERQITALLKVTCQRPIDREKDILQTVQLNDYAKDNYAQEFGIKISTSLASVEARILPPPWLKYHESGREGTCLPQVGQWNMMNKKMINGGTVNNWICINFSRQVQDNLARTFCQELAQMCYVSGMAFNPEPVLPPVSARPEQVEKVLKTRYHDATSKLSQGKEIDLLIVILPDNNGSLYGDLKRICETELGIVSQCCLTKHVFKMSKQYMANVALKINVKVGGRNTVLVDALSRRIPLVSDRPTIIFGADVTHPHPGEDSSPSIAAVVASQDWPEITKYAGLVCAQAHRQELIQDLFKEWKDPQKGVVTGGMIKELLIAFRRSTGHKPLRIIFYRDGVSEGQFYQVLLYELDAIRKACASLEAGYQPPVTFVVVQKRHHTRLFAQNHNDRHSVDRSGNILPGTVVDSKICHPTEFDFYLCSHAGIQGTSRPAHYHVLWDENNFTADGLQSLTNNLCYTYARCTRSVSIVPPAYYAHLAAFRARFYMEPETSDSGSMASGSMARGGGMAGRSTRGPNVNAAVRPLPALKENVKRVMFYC
Put plainly: affinity purification with mass spectrometry; GFP-AGO1 immunoprecipitated with magnetic microbeads coupled to GFP antibodies (μMACS GFP Isolation Kit) from 7-day-old pAGO1:GFP-AGO1 ago1-27 seedlings after 1 h HS at 37°C; lysis buffer 50mM Tris-HCl pH7,5, 50mM NaCl, 0,25% IGEPAL CA-630, 2mM MgCl2, 5mM DTT; control IPs in Col-0 and the p35S:GFP-3Flag line; nanoLC-MS/MS.

The record followed here is paper PMC10879784.

No constants are given. Whether binding was seen depends on the method and setting. Binding seen in cells or lysates may run through a third protein. Here binding means that the protein was enriched with, or labelled near, the bait; the list need not be complete. Tags and fused reporters may be left off the sequences shown.

B1: RNA-binding protein 47C (RBP47C) (protein, UniProt Q9SX79 1-432)
chain: MADVKIQSESESSDSHPVVDNQPPPPPPPPQQPAKEEENQPKTSPTPPPHWMRYPPTVIIPHQMMYAPPPFPPYHQYPNHHHLHHQSRGNKHQNAFNGENKTIWVGDLHHWMDEAYLNSSFASGDEREIVSVKVIRNKNNGLSEGYGFVEFESHDVADKVLREFNGTTMPNTDQPFRLNWASFSTGEKRLENNGPDLSIFVGDLSPDVSDNLLHETFSEKYPSVKAAKVVLDANTGRSKGYGFVRFGDENERTKAMTEMNGVKCSSRAMRIGPATPRKTNGYQQQGGYMPNGTLTRPEGDIMNTTIFVGGLDSSVTDEDLKQPFNEFGEIVSVKIPVGKGCGFVQFVNRPNAEEALEKLNGTVIGKQTVRLSWGRNPANKQPRDKYGNQWVDPYYGGQFYNGYGYMVPQPDPRMYPAAPYYPMYGGHQQQVS
B1: the binding result is on record as “binds”.

B2: RH12 (protein, UniProt Q9M2E0 1-498)
chain: MNTNRGRYPPGVGTGRGAPPNPDYHQSYRQQQPPQDQQYVQRGYSQNPQQMQLQQQHQQQQQQQQWSRRPQLPGNASNANEVVQQTTQPEASSDANGQDWKATLRLPPPDTRYQTADVTATKGNEFEDYFLKRDLLKGIYEKGFEKPSPIQEESIPIALTGSDILARAKNGTGKTGAFCIPVLEKIDPNNNVIQAMILVPTRELALQTSQVCKELSKYLNIQVMVTTGGTSLRDDIMRLHQPVHLLVGTPGRILDLTKKGVCVLKDCAMLVMDEADKLLSAEFQPSLEELIQFLPQNRQFLMFSATFPVTVKAFKDRHLRKPYVINLMDQLTLMGVTQYYAFVEERQKVHCLNTLFSKLQINQSIIFCNSVNRVELLAKKITELGYSCFYIHAKMVQDHRNRVFHEFRNGACRNLVCTDLFTRGIDIQAVNVVINFDFPRTSESYLHRVGRSGRFGHLGLAVNLVTYEDRFKMYQTEQELGTEIKPIPSNIDQAIYCQ
For the molecule B2, the binding result is “binds”.

B3: LARP1a (protein, UniProt Q940X9 1-826)
chain: MMAETEGSVADDRELITREGGIGTKSPWKTTTSPVETIDAPVMGAHSWPALADAAQQPRPKNPPAPAPAPPSKNIPTSIPIPTPAVTGQAKSKGGGKANPGHKNPSGRHSKPGPRSNQNGPPPPPYLVHAVPYHPPPFPPMVPLPHAAGPDFPYAPYPPYPVPVPPVTESGNEKQVQASPLPPVLPAPQGDPGKPWPHQRGFDPRNMPQGAGPRNFGRPPFMGPAPGFLVGPGPGFPGPVYYLPGPPPGAIRGPYPPRFAPYPVNQGPPILSPEKLDLRDRVLKQVEYYFSDENLENDHYLISLMDEEGWVPTKIIAGFKRVKAMTMDVDFIVYALGFSNSVEVQGDQIRKRDKWSDWIPASKKSTSAETIGDGDKDSPKSITSGDNFGNPSKGSSKPTVSDFSSEGAQSSRTNNYKSGNLKSSADEKRNVEDLSNDFSNTFLLDEELDLEHRSPRKSGLSMSKSIEYEDDDMAVDDQDIQKLVIVTQNSGKSDGAGIGGTEAKNIPKELASTINDGLYYFEQELKKKRSGRRKNNSHLDTKDGKIKSGEGLNTKLGENSAANDGGEEHGIITSRRKQNKGTHKHHTAHARRFFSSNIRNNGNISESPPSSSIGFFFGSTPPDSHGPRLSKLSSSPQCTLSGSSPPVGSLPKSFPPFQHPSHQLLEENGFKQEKYLKYRKRCLNERKKLGSGCSEEMNHLYRFWSYFLRDTFVLSMYDDFQKFALEDAAGNYDYGLECLFRFYSYGLEKHFDEDLYKDFEKLSLDFYHKGNLYGLEKYWAFHHYRGKEEPITKHPELEKLLKEEFRSIDDFRAKETITNQKENKSH
For the molecule B3, the binding entry is recorded as “binds”.

B4: RNA helicase RH6 (protein, UniProt Q94BV4 1-528)
chain: MNNNNNNRGRFPPGIGAAGPGPDPNFQSRNPNPPQPQQYLQSRTPFPQQPQPQPPQYLQSQSDAQQYVQRGYPQQIQQQQQLQQQQQQQQQQQEQQWSRRAQLPGDPSYIDEVEKTVQSEAISDSNNEDWKATLKLPPRDNRYQTEDVTATKGNEFEDYFLKRDLLRGIYEKGFEKPSPIQEESIPIALTGSDILARAKNGTGKTGAFCIPTLEKIDPENNVIQAVILVPTRELALQTSQVCKELSKYLKIEVMVTTGGTSLRDDIMRLYQPVHLLVGTPGRILDLAKKGVCVLKDCAMLVMDEADKLLSVEFQPSIEELIQFLPESRQILMFSATFPVTVKSFKDRYLKKPYIINLMDQLTLMGVTQYYAFVEERQKVHCLNTLFSKLQINQSIIFCNSVNRVELLAKKITELGYSCFYIHAKMVQDHRNRVFHDFRNGACRNLVCTDLFTRGIDIQAVNVVINFDFPRTSESYLHRVGRSGRFGHLGLAVNLVTYEDRFKMYQTEQELGTEIKPIPSLIDKAIYCQ
Turning to B4, the binding result was “binds”.

B5: PAB8 (protein, UniProt Q9FXA2 1-671)
chain: MAQIQHQGQNANGGVAVPGAAAAEAAAAAAGAAAAAAGAAQQGTTSLYVGDLDATVTDSQLFEAFTQAGQVVSVRVCRDMTTRRSLGYGYVNYATPQDASRALNELNFMALNGRAIRVMYSVRDPSLRKSGVGNIFIKNLDKSIDHKALHETFSAFGPILSCKVAVDPSGQSKGYGFVQYDTDEAAQGAIDKLNGMLLNDKQVYVGPFVHKLQRDPSGEKVKFTNVYVKNLSESLSDEELNKVFGEFGVTTSCVIMRDGEGKSKGFGFVNFENSDDAARAVDALNGKTFDDKEWFVGKAQKKSERETELKQKFEQSLKEAADKSQGSNLYVKNLDESVTDDKLREHFAPFGTITSCKVMRDPSGVSRGSGFVAFSTPEEATRAITEMNGKMIVTKPLYVALAQRKEDRKARLQAQFSQMRPVNMPPAVGPRMQMYPPGGPPMGQQLFYGQGPPAMIPQPGFGYQQQLVPGMRPGGSPMPNFFMPMMQQGQQQQQQQQQQQRPGGGRRGALPQPQQPSPMMQQQMHPRGRMYRYPQRDVNTMPGPTQNMLSVPYDVSSGGGVHHRDSPTSQPVPIVALATRLANAAPEQQRTMLGENLYPLVEQLEPESAAKVTGMLLEMDQTEVLHLLESPEALKAKVTEAMDVLRSVAQQQAGGAADQLASLSLGDNIVP
Consider B5, for which the binding entry is reported as “binds”.

B6: AGO5 (protein, UniProt Q9SJK3 1-997)
chain: MSNRGGGGHGGASRGRGGGRRSDQRQDQSSGQVAWPGLQQSYGGRGGSVSAGRGRGNVGRGENTGDLTATQVPVASAVSGGRGRGNIGDPTFSVASSSKTVSVASSSKEESKNTEVSETMSNLQITSTETKPEMTSLPPASSKAVTFPVRPGRGTLGKKVMVRANHFLVQVADRDLYHYDVSINPEVISKTVNRNVMKLLVKNYKDSHLGGKSPAYDGRKSLYTAGPLPFDSKEFVVNLAEKRADGSSGKDRPFKVAVKNVTSTDLYQLQQFLDRKQREAPYDTIQVLDVVLRDKPSNDYVSVGRSFFHTSLGKDARDGRGELGDGIEYWRGYFQSLRLTQMGLSLNIDVSARSFYEPIVVTDFISKFLNIRDLNRPLRDSDRLKVKKVLRTLKVKLLHWNGTKSAKISGISSLPIRELRFTLEDKSEKTVVQYFAEKYNYRVKYQALPAIQTGSDTRPVYLPMELCQIDEGQRYTKRLNEKQVTALLKATCQRPPDRENSIKNLVVKNNYNDDLSKEFGMSVTTQLASIEARVLPPPMLKYHDSGKEKMVNPRLGQWNMIDKKMVNGAKVTSWTCVSFSTRIDRGLPQEFCKQLIGMCVSKGMEFKPQPAIPFISCPPEHIEEALLDIHKRAPGLQLLIVILPDVTGSYGKIKRICETELGIVSQCCQPRQVNKLNKQYMENVALKINVKTGGRNTVLNDAIRRNIPLITDRPTIIMGADVTHPQPGEDSSPSIAAVVASMDWPEINKYRGLVSAQAHREEIIQDLYKLVQDPQRGLVHSGLIREHFIAFRRATGQIPQRIIFYRDGVSEGQFSQVLLHEMTAIRKACNSLQENYVPRVTFVIVQKRHHTRLFPEQHGNRDMTDKSGNIQPGTVVDTKICHPNEFDFYLNSHAGIQGTSRPAHYHVLLDENGFTADQLQMLTNNLCYTYARCTKSVSIVPPAYYAHLAAFRARYYMESEMSDGGSSRSRSSTTGVGQVISQLPAIKDNVKEVMFYC
Consider B6, for which the binding result is given as “binds”.

B7: RNA-binding protein 47B (RBP47B) (protein, UniProt Q0WW84 1-435)
chain: MQTTNGSDSTLATSGATPPNQQTPPPPQQWQQQQQQQQQWMAAMQYPPAAAMMMMQQQQMLMYPHQYVPYNQGPYQQHHPQLHQYGSYQQHQHQQHKAIDRGSGDDVKTLWVGDLLHWMDETYLHSCFSHTGEVSSVKVIRNKLTSQSEGYGFVEFLSRAAAEEVLQNYSGSVMPNSDQPFRINWASFSTGEKRAVENGPDLSVFVGDLSPDVTDVLLHETFSDRYPSVKSAKVVIDSNTGRSKGYGFVRFGDENERSRALTEMNGAYCSNRQMRVGIATPKRAIANQQQHSSQAVILAGGHGSNGSMGYGSQSDGESTNATIFVGGIDPDVIDEDLRQPFSQFGEVVSVKIPVGKGCGFVQFADRKSAEDAIESLNGTVIGKNTVRLSWGRSPNKQWRGDSGQQWNGGYSRGHGYNNGGGYANHHDSNNYHGEN
Consider B7, for which the binding result was “binds”.

B8: RNA-binding protein 47A (RBP47A) (protein, UniProt F4I3B3 1-445)
chain: MQTPNNNGSTDSVLPPTSAGTTPPPPLQQSTPPPQQQQQQQWQQQQQWMAAMQQYPAAAMAMMQQQQMMMYPHPQYAPYNQAAYQQHPQFQYAAYQQQQQQHHQSQQQPRGGSGGDDVKTLWVGDLLHWMDETYLHTCFSHTNEVSSVKVIRNKQTCQSEGYGFVEFLSRSAAEEALQSFSGVTMPNAEQPFRLNWASFSTGEKRASENGPDLSIFVGDLAPDVSDAVLLETFAGRYPSVKGAKVVIDSNTGRSKGYGFVRFGDENERSRAMTEMNGAFCSSRQMRVGIATPKRAAAYGQQNGSQALTLAGGHGGNGSMSDGESNNSTIFVGGLDADVTEEDLMQPFSDFGEVVSVKIPVGKGCGFVQFANRQSAEEAIGNLNGTVIGKNTVRLSWGRSPNKQWRSDSGNQWNGGYSRGQGYNNGYANQDSNMYATAAAAVPGAS
As to B8, the binding result is given as “binds”.
